{"sequences": {"note": "Sequences of proteins named here, by UniProt entry; tags and fusion partners are left off. A change or cut given only in a name is not applied to a line headed by its entry.", "UniProt P07636": "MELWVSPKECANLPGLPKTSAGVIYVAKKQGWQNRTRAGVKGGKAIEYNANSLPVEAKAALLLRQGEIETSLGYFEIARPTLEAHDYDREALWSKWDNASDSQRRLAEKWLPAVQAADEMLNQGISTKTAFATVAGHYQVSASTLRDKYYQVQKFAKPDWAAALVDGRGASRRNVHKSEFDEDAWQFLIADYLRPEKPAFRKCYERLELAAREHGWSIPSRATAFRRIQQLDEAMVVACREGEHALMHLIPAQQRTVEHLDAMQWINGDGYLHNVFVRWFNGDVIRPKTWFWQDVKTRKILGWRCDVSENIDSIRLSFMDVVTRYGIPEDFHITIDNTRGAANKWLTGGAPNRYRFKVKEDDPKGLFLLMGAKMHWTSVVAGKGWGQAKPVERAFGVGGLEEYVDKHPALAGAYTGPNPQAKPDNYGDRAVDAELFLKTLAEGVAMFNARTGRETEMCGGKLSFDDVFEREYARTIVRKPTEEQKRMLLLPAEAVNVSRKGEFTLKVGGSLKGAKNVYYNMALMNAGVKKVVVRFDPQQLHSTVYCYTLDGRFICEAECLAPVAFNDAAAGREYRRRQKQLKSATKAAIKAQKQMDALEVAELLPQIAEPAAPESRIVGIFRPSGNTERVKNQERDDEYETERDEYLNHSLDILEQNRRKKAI"}, "source": "patent US20160194677", "target": "MuA transposase (UniProt P07636)", "assay": "enzyme reaction in vitro", "details": "purified recombinant protein, protein details: Thermo catalogue F-750C", "note": "For at least one entry, the source does not settle the construct or the ends of the probe.", "data": [{"sequence": "TTTTTTTTTTTTTTTTTTTTTTTTTTTTTTTTTTTTTTTTTTTTTTTTTTGGTTGTTTCTGTTGGTGCTGATATTGCGTTTTCGCATTTATCGTGAAACGCTTTCGCGTTTTTCGTGCGCCGCTTCA / GATCTGAAGCGGCGCACGAAAAACGCGAAAGCGTTTCACGATAAATGCGAAAACTTTTTTTTTTTTTTTTTTTTTTTTTTTTTTTTTTTTTTTTTTTTTTTTTT [Y-shaped MuA substrate (dUMP)]", "values": [{"measurement": "activity on this sequence", "setting": "four iSpC3 spacers between SEQ 34 and 35 and between SEQ 36 and 37, dUMP at n of SEQ 36 [strand 2 position 5 dUMP (n = T), four iSpC3 spacers between SEQ 34 and 35 (strand 1) and between SEQ 36 and 37 (strand 2, after position 54) left out], letters built from the parent sequence and the stated change", "result": "active"}]}, {"sequence": "GATCTGAAGCGGCGCACGAAAAACGCGAAAGCGTTTCACGATAAATGCGAAAACGTTTTCGCATTTATCGTGAAACGCTTTCGCGTTTTTCGTGCGCCGCTTCA [Hairpin MuA substrate (dUMP)]", "values": [{"measurement": "activity on this sequence", "setting": "four iSpC3 spacers between SEQ 36 and 35, dUMP at n of SEQ 36 [position 5 dUMP (n = T), four iSpC3 spacers between SEQ 36 and 35 (between positions 54 and 55) left out], folded or branched DNA, letters built from the parent sequence and the stated change", "result": "active"}]}, {"sequence": "TTTTTTTTTTTTTTTTTTTTTTTTTTTTTTTTTTTTTTTTTTTTTTTTTTGGTTGTTTCTGTTGGTGCTGATATTGCGTTTTCGCATTTATCGTGAAACGCTTTCGCGTTTTTCGTGCGCCGCTTCA / GATCTGAAGCGGCGCACGAAAAACGCGAAAGCGTTTCACGATAAATGCGAAAAC [MuA substrate 1 (wild-type end)]", "values": [{"measurement": "activity on this sequence", "setting": "four C3 spacers between SEQ 27 and SEQ 24", "result": "active"}]}, {"sequence": "TTTTTTTTTTTTTTTTTTTTTTTTTTTTTTTTTTTTTTTTTTTTTTTTTTGGTTGTTTCTGTTGGTGCTGATATTGCGTTTTCGCATTTATCGTGAAACGCTTTCGCGTTTTTCGTGCGCCGCTTCA / GATCTGAAGCGGCGCACGAAAAACGCGAAAGCGTTTCACGATAAATGCGAAAAC [MuA substrate 2 (dUMP)]", "values": [{"measurement": "activity on this sequence", "setting": "four C3 spacers between SEQ 27 and SEQ 24, dUMP at n of SEQ 26, 5' phosphate on SEQ 26 [strand 2 position 5 dUMP (n = T), strand 2 5' phosphate, four C3 spacers between SEQ 27 and SEQ 24 in strand 1 left out], letters built from the parent sequence and the stated change, variant of MuA substrate 1 (wild-type end)", "result": "active"}]}]}
